Experimental data: patent US20050239832A1, “Methods of treatment of amyloidosis using bi-cyclic aspartyl protease inhibitors” (priority 2004, published 2005)

Assay: Brain uptake in CF-1 mice after IV administration
Settings: CF-1, mouse, in vivo, 10 μmol/kg
Procedure: The following assay was employed to determine the brain penetration of compounds encompassed by the present invention.
In-life phase: Test compounds were administered to CF-1 (20-30 g) mice at 10 μmol/kg (4 to 7 mg/kg) following IV administration in the tail vein. Two time-points, 5 and 60 min, were collected post dose. Four mice were harvested for heparinized plasma and non-perfused brains at each time-point for a total of 8 mice per compound.
Analytical phase: Samples were extracted and evaporated to dryness, then reconstituted and injected onto a reverse phase chromatographic column while monitoring the effluent with a triple quadrupole mass spectrometer. Quantitation was then performed with a 1/x^2 weighted fit of the least-squares regression from calibration standards prepared in parallel with the in vivo samples. The LOQ is generally 1 ng/mL and 0.5 ng/g for the plasma and brain respectively. Data was reported in micromolar (μM) units. Brain levels were corrected for plasma volumes (16 μL/g).

CN1C(=O)CN=C(c2ccccc2)c2cc(Cl)ccc21 [Diazepam] showed a concentration at 5 min of 5480 nM and a concentration at 60 min of 176 nM.
